Test results published in patent publication US4396623A, “Carbocyclic analogs of uracil nucleosides as antiviral agents” (priority 1981, dated 1983).
Where “and” joins values, the source holds several entries; their conditions need not be identical. Equal values may be shown once. The name of at least one read-out is uncertain.

Test system: herpes simplex virus, Type 1
Experiment: Antiviral test against herpes simplex virus, Type 1, growing in rabbit kidney cells (Virus Rating, MIC50)
Assay type: cell-based
Set-up: key: Ehrlich weighted score; 0.5-0.9 marginal-moderate, ≥1 definite activity
Conditions: Table 3 comparison
Experimental: Carbocyclic analogs of 5-substituted-2'-deoxyuridines were tested for antiviral activity against viruses that replicate in mammalian cells growing in cell culture. The Virus Rating (VR) is a weighted measurement of antiviral activity determined by the method of Ehrlich et al, Annals of the New York Academy of Science, volume 130, pages 5-16, 1965. In tests carried out by this method, a VR of 0.5-0.9 indicates marginal to moderate antiviral activity and a VR equal to or greater than 1 indicates definite antiviral activity. The higher the value of VR, the greater is the antiviral activity. The MIC50 (minimum inhibitory concentration, 50%) is the concentration of a test compound required for 50% inhibition of virus-induced cytopathogenic effect.
The results of antiviral tests, performed as described in Example 7, of 5-iodo-2'-deoxyuridine (IdUrd), the carbocyclic analog (Example 3) of 5-iodo-2'-deoxyuridine, 9-β-D-arabinofuranosyladenine (Ara-A), the carbocyclic analog (Example 2) of 5-bromo-2'-deoxyuridine, the carbocyclic analog (Example 5) of 5-(methylamino)-2'-deoxyuridine and the carbocyclic analog of thymidine are summarized in Table 3.

**Q.** How did the “Virus Rating (VR)” value turn out when O=c1[nH]c(=O)n([C@H]2C[C@H](O)[C@@H](CO)O2)cc1I [5-Iodo-2'-deoxyuridine, 5-iodo-2'-deoxyuridine, reference compound] was run?
**A.** 6.9 and 7.9
